Patent publication US20220348674A1
No constants are given. Whether binding was seen depends on the method and setting. Some binding calls cover weakened binding; strength is not graded here.

By UniProt entry, the sequences of proteins in these tests, tags left out. Where a name states a change or a piece, a line headed by the entry shows the natural chain unless it says otherwise. Residues count along the entry.
UniProt P25942: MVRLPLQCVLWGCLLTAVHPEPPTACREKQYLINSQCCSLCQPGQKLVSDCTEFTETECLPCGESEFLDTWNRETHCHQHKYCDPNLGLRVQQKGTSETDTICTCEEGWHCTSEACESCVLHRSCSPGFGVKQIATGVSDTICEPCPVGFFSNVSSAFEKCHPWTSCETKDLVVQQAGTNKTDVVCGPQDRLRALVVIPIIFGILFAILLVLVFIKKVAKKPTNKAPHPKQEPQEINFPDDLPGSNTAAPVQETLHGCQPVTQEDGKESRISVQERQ
cell surface human CD40 on HEK-CD40 cells: residues 21-277 of P25942
purified recombinant human CD40 protein: residues 21-193 of P25942

What was measured:
[1] = molecular target: cell surface human CD40 on HEK-CD40 cells (human) (UniProt P25942); experiment: flow cytometry on HEK-CD40 cells
[2] = molecular target: cell surface human CD40 on HEK-CD40 cells (human) (UniProt P25942); experiment: flow cytometry on HEK-CD40 cells (legend of FIG. 2)
[3] = molecular target: purified recombinant human CD40 protein (human) (UniProt P25942); experiment: Octet (BLI), recombinant CD40

binding [1]: binds
binding [2]: binds
binding [3]: binds
B1: 3B5, humanized anti-CD40 mAb, IgG1 isotype (antibody, V domains shown)
VH: EVQLVESGGGLIQPGGSLRLSCAVSGFSLSTYAVSWVRQAPGKGLEWVGIIDSGGGTAYASWVKGRFTISRDNSKNTLYLQMNSLRAEDTAVYYCARGVTFFGLWGQGTLVTVSS
VL: DIVMTQSPSTLSASVGDRVTITCQASQSISNYLSWYQQKPGKAPKLLIYRASDLASGVPSRFSGSGSGTEFTLTISSLQPDDFATYYCQAYYYSGGGSYDYAFGGGTKVEIK
